Experimental data as given in PubChem BioAssay AID1347426 (Functional Genomics Laboratory (NCATS/FGL), 2020).
Screen size: about 31,000 sequences; about 1,400 (4.5%) were called active.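 Rule for the calls: active = median seed-adjusted z-score above 1 or below -1; inactive = the rest.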 This is one part of the list.

assay: Novel Modifiers of Survival Motor Neuron (SMN) Protein: Gene Identification via Genome-wide siRNA Screen; conditions: HEK293T SMN2-luciferase reporter, siRNA knockdown, 72 h; actives lie on both sides;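 note: luminescence tracks full-length SMN protein made from the SMN2 reporter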
In short: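 Genome-wide siRNA screen (10418 genes, 3 siRNAs each, 1 pmol per well) by reverse transfection in HEK293T cells stably carrying an SMN2-luciferase reporter; luminescence after 72 hours, normalized to negative-control siRNA, log10-transformed, MAD-scored.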

| Sequence | median seed-adjusted z-score |
| --- | --- |
| GGAUAACAGUGAAGCCGAATT against TNR | inactive: 0.498 |
| CAUUGUAGAUUACUCAGAATT against RHOT1 | inactive: -0.189 |
| GCAGCAUUAUAGUCGUAUUTT against PRSS7 | inactive: 0.0614 |
| GGUUACAAGUGUAUAACAATT against CD59 | inactive: 0.79 |
| CCGUGUACAUUGCUGGUCATT against HNRPLL | inactive: 0 |
| CAAAGAUAAGAUGCUUAUATT against AGPAT5 | inactive: 0.571 |
| CUACAUCACUCUUCUGGUATT against KCNV1 | inactive: 0.109 |
| CAACCAGACUCGUCUUGAUTT against INHBC | inactive: -0.66 |
| UCAGUUCGAUGAUAUCAGATT against NEK10 | inactive: -0.0464 |
| CCGCUUGACUAUGAGCUCATT against TTC7A | inactive: -0.303 |
| AGACCAUUCUAGAGAUCAATT against NAIP | inactive: -0.172 |
| GUACUGAGAAGAAACCGGATT against FBXO11 | inactive: 0.733 |
| GCAGUCACAUCUACCAGAATT against ZNF83 | inactive: 0.118 |
| GAUAAUCACUGAUCGAACUTT against DAZL | inactive: -0.441 |
| GGACCAUCCGUUCGCCUUATT against APBA1 | inactive: 0.305 |
| GGUCAGAGGUUUUGCAUCATT against MSRB2 | inactive: 0.373 |
| GCAAGAUUGUGAUACGUUUTT against ZNF615 | inactive: 0.0912 |
| CUACGUGACAGACUAUUUATT against INSR | inactive: 0.172 |
| CAACAACUUUAGCUAUGUUTT against SLC16A5 | inactive: -0.151 |
| CUGACAUCAUGACAACAAATT against POSTN | inactive: -0.45 |
| CUAAGAAGCAGAAACUAGATT against TSEN34 | inactive: 0.918 |
| CACGAAAACUUACCCAGAATT against DGUOK | inactive: 0.0168 |

| Sequence | median seed-adjusted z-score |
| --- | --- |
| CCUUCAGUCAUUUCAGUAATT against ZNF823 | inactive: 0.143 |
| GGUUUGACGCAAUCCUGAATT against HMGCL | inactive: 0.046 |
| CAGCGCAUAUGGUAUGGAATT against SLC27A2 | inactive: -0.647 |
| GGCUAUUGGUGAAUUUUGATT against DDC | inactive: 0.395 |
| GGACACUGGGCAUAGAUUUTT against ALPP | inactive: 0 |
| GAACUCUUACUAAUGUCUATT against DERA | inactive: -0.197 |
| GGAAAAGCUUUACUCGAAATT against ZNF662 | inactive: 0.352 |
| GGAAAUAGGUCUAGUACUATT against PRPF4B | active: -2.29 |
| CGGCUGACAUUAGCUCCCATT against DUSP5 | inactive: 0.324 |
| GCAGUAUGUUUCUCAGGUUTT against TLL2 | inactive: 0.195 |
| GGUGUUAUCCUAUGAGGUATT against MPP4 | inactive: 0.13 |
| GUGCUUUGCUGCAAGAUAATT against LYZ | inactive: -0.0538 |
| GGAGUUCAGUUCUGCCCAATT against NDOR1 | inactive: 0.328 |
| AGUACAUCAUUGAUAACAATT against CTSS | inactive: 0.123 |
| GAGCUAUAGUAAUUGCUCUTT against MIF4GD | inactive: 0.373 |
| GGAUGAUGAGUCAAACAAATT against ZHX3 | inactive: -0.0916 |
| CAGUGUUCGUUCAACCCUATT against ZNF665 | active: 1.13 |
| CCUUGUUUCGGACUAUAGATT against CFLAR | inactive: -0.413 |
| CUGAUGAUCAUAAUAGUAATT against MPZL2 | inactive: -0.0172 |
| GGACAGUGAGCUUGCAGAATT against TTC7A | inactive: -0.303 |
| CCUCAUUCAUGACCGAAGATT against TAT | inactive: 0.257 |
| GGACUUUGAGGAAACGGAATT against BRD8 | inactive: -0.133 |

| Sequence | median seed-adjusted z-score |
| --- | --- |
| GCAUCCUCCUGAUGGUACATT against MPI | inactive: -0.526 |
| CAGUCAAACCGUACAAGAATT against SRRM1 | inactive: -0.861 |
| GGUGUUUGAUAUUCGAAUUTT against USP40 | inactive: 0.00437 |
| CGUCCAUCCUGUACGGCAATT against ALPI | inactive: 0 |
| GGACCACCACAAUUCGCAUTT against PCDHB5 | inactive: 0 |
| CACCAGCGACGGGAUCUUATT against RHOBTB2 | inactive: -0.139 |
| CAAUGGAGAUCUGCCUCAATT against PLD3 | inactive: 0.066 |
| GUAUGACCAGUGUUUGACATT against GALNT7 | inactive: -0.63 |
| GAGUGUUACCUAUAGAACATT against ZNF559 | inactive: -0.0208 |
| CAUUAUCUAUUCUAGACAATT against TTC18 | active: -1.15 |
| GGCUGUUCACAAUAGAUCUTT against FLT3 | inactive: 0.418 |
| GGACUUUGCUGCCUAAAUUTT against PIP5K1A | inactive: 0.0924 |
| CCAUACGAGUGGUGAGAAATT against RASSF2 | inactive: -0.649 |
| GGAUGUAUUGUCGCCUGUATT against RENBP | inactive: 0.587 |
| GGUUCUUGGGUGAAGGACATT against CHGB | active: -1.29 |
| CAUUGGAAACCAGAGCUUUTT against CPN2 | inactive: 0.0491 |
| GCUCCUCUGUUGAUAUGCATT against ZNF786 | inactive: -0.518 |
| AAAGUGGAUUGCACACAGATT against TGFB1I1 | inactive: 0.887 |
| CCCUAUCGAUGUAAUCUAUTT against ZFP90 | inactive: 0 |
| GCAGAUCUCAUGUCCUCUATT against FPGS | inactive: -0.853 |
| CCCAGUUCCUAGACUGUAUTT against MTMR8 | inactive: -0.416 |
| GCUACAUCUUUAUAAGGGATT against IL12RB2 | inactive: 0.368 |

| Sequence | median seed-adjusted z-score |
| --- | --- |
| GGUUAUCCUUUGCCCAGCATT against ACTL7A | active: 1.1 |
| CAGCUUACAAUACAUCAAATT against ZNF7 | inactive: 0 |
| GGUCUUCAGAUGAGCAGAATT against COQ9 | inactive: -0.787 |
| CGUCGUACAAGUGAACAAATT against CACNA1A | inactive: -0.467 |
| GGGAUUCCCUUGGAGGUAATT against KIF15 | inactive: -0.873 |
| GCAUCUCCUUUUACAAUGUTT against MEFV | inactive: 0 |
| AGGUUACAGAGGACUCAGATT against MZF1 | inactive: 0.215 |
| AAACGAGACUACUUCCUUATT against TUBGCP6 | inactive: 0 |
| GAGACUAUAUCUACAUGAATT against SLITRK3 | inactive: -0.564 |
| GAAUCGGCAGUGACAGGAATT against NPR3 | inactive: -0.436 |
| CCGGAUGGGUGUUUGAGAATT against LCN6 | inactive: 0.584 |
| GCUAAGAACAUGUAUGGAUTT against KIF23 | inactive: -0.449 |
| GCAUGGACUUAAAAGUGGATT against GFPT2 | inactive: 0.412 |
| GAUGGAACAUGUACGGUUATT against KLHL2 | inactive: 0 |
| GAAACCAGCUCGAAUAUAUTT against ATP5C1 | inactive: -0.0179 |
| GCCUAACCGAAGCAUAUAATT against ACOX1 | inactive: -0.897 |
| GCUCCAACCAGACAACAAATT against ZDHHC14 | inactive: 0.312 |
| GACUAUAACUUCCCGAAAATT against SYT11 | inactive: 0.29 |
| CACUCCAGAUGCUACAAAATT against PGLYRP2 | inactive: -0.697 |
| CGGUGACCAUCAAAUCUGUTT against TMED4 | inactive: -0.895 |
| GGGUCGAUGAAGAAUAUCATT against PHKA1 | inactive: 0.286 |
| GCAAUUUGGUUCUAUACCATT against SLC2A9 | inactive: 0.216 |

| Sequence | median seed-adjusted z-score |
| --- | --- |
| GGAAUACUUAAGUCAGAUATT against PLSCR2 | inactive: 0 |
| GCAUGGGAAUCAUUGUGCUTT against PPIL1 | inactive: 0.166 |
| GGACUGUCUUGAGAAAACATT against RCAN1 | inactive: -0.000195 |
| GCACGGAGAUUUUGGUCAATT against CNTN2 | inactive: 0 |
| CAAACUGAACAGAAGAAUUTT against KLK5 | inactive: 0 |
| GGCUCGAUUUAAUUGUUCATT against DDX20 | inactive: -0.0137 |
| CGGAUUCAUUUGUGACUAUTT against PLS3 | inactive: -0.167 |
| GUGUAUGAGUUUAGAGUCATT against EZH2 | inactive: 0.313 |
| GAGUUCGGCUGGUACAGUUTT against CASK | inactive: -0.422 |
| GUCGCUUCGUCAAGAAAGATT against KCNJ14 | inactive: -0.526 |
| CCAUUAUUGCUGCCCGGAATT against PGM5 | inactive: -0.0543 |
| ACUGACUGCUUGACCUUUATT against PVRL4 | inactive: -0.266 |
| CCUGUACUGGGUUAUUUUUTT against KCNJ11 | inactive: -0.567 |
| GCAGAUCAACUCACAAUGATT against MXD1 | inactive: -0.763 |
| CCUCAUUGAUAACACUAAATT against GBP2 | inactive: -0.263 |
| GCCUUCGGAUCCUAACAAATT against NCOA6 | inactive: -0.0197 |
| GGUCUGCAAGAGACAAUUATT against LEF1 | inactive: 0.808 |
| AAACAACAGUGGAGCUCUUTT against PLA2G12A | inactive: 0.139 |
| GGUUCACCGCUGUCAGUUUTT against KLF7 | inactive: 0.393 |
| AGAUGUCGCUCAUCCUUUATT against TMPRSS3 | inactive: -0.554 |
